At least one structure is not confirmed: it was looked up by name or label, or the drawing left a doubt.
System: pgp-5::gfp
Test: pgp-5::gfp induction in germline translation-defective eft-3(q145);pgp-5::gfp strain (RNAi, bile acid rescue, microbes)
Assay type: in vivo, C. elegans
Details: bile acids at 100 uM

C[C@H](CCC(=O)O)[C@H]1CC[C@H]2[C@@H]3CC[C@@H]4C[C@H](O)CC[C@]4(C)[C@H]3C[C@H](O)[C@]12C [Deoxycholic acid]
rescue of the defect in pgp-5::gfp induction caused by daf-22 or dhs-28 gene inactivations: weakly rescued

Source: US12065648B2, “Methods and compositions for inhibiting detoxification response” (priority 2015, dated 2024)
